Results as given in patent publication US20240342320A1, “POLYPEPTIDE TARGETING INTEGRIN ALPHA 6 AND USE THEREOF” (GUANGZHOU GENBIONOVA MEDICAL TECHNOLOGY CO., LTD., priority 2021, published 2024).
These are yes or no findings as the source states them, for the method shown. Some binding calls cover weakened binding; strength is not graded here.

What was measured:
[1] = target: T1, Integrin α6 on human tumor cells with high integrin α6 expression (human) (UniProt P23229); assay: flow cytometry of FITC peptide on HCCLM3, Huh-7, S18 and MDA-MB-231 cells
T1 sequence (looked up): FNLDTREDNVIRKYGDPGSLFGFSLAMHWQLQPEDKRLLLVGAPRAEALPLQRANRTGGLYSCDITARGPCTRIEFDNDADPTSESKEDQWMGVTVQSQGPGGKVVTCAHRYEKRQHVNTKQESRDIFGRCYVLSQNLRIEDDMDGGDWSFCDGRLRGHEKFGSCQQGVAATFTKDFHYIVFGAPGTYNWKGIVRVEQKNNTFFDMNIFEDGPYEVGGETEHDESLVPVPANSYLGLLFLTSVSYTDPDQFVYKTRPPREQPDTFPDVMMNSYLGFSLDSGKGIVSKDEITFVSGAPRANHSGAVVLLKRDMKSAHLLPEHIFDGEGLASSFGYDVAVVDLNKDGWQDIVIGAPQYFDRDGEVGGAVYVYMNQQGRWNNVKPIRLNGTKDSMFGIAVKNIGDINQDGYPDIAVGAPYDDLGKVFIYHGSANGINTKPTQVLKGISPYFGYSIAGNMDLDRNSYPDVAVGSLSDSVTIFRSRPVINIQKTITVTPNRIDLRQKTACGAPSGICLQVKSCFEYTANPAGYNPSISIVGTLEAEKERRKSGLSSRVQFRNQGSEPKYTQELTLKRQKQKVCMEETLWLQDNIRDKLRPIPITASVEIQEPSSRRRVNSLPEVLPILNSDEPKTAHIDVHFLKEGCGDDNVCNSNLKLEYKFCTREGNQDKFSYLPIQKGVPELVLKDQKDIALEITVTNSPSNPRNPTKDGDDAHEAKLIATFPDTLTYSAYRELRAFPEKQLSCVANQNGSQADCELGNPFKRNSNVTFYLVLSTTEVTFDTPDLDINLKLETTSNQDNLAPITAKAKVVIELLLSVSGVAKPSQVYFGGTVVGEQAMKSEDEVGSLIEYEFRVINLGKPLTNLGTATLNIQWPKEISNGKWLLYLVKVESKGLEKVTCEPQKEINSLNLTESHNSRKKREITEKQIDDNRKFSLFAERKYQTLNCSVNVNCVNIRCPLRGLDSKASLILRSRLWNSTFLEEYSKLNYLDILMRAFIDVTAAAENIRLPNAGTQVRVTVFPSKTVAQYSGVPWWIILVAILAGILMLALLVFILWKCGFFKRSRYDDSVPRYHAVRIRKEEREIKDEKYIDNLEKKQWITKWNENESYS

[2] = target: T1, Integrin α6 on human tumor cells with high integrin α6 expression (human); assay: flow cytometry, FITC-labelled peptide on Huh7 cells (high integrin α6), 37 °C, 2 h
[3] = target: T1, Integrin α6 on human tumor cells with high integrin α6 expression (human); assay: flow cytometry, FITC-labelled peptide on MDA-MB-231 cells (high integrin α6), 37 °C, 2 h
[4] = target: T1, Integrin α6 on human tumor cells with high integrin α6 expression (human); assay: flow cytometry, FITC-labelled peptide on HCCLM3 cells (high integrin α6), 37 °C, 2 h
[5] = target: T1, Integrin α6 on human tumor cells with high integrin α6 expression (human); assay: flow cytometry, FITC-labelled peptide on S18 cells (high integrin α6), 37 °C, 2 h

binding [1]: binds
binding [2]: binds
binding [3]: binds
binding [4]: binds
binding [5]: binds
B1: …-PEG4-K-FITC (peptide)
peptide: CRWYDENAC
modifications: cyclic peptide formed by cysteine C at both ends; C-terminus carries PEG4-K-FITC
